Source: the supplement of paper PMC6078165
Values are relative to the signal before dosing, not to a vehicle control; the signal also falls without drug.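 Labels refer to human fibroblasts, largely primary: uterine (C12385, HUF), lung (H6013), bone (Hs27A), adrenal (HADF), skin (WS1), plus mammary HMF and breast cancer-associated Hs343T. Cancer lines are basal-like or mesenchymal-like triple-negative breast cancer. The paper counts as hits responses shifting over 3x the replicate standard deviation. The tissue of the other fibroblasts is not given here.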

Tested on: MDAMB231
Assay: relative JC-1 red fluorescence (viability) vs pre-drug, coculture with fibroblast (fraction); higher = more viable cancer cells
Method: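 JC-1 labelled TNBC cells cocultured 1:1 (1,500 cells each) with CellTrace Violet stained primary or stromal fibroblasts in 384-well plates in FluoroBrite medium, treated with one of 42 anticancer drugs at 0.1, 1, 10 or 100 uM. JC-1 red fluorescence (mitochondrial integrity in cancer cells only) was read by plate reader every 8 h for 72 h. Values are normalised to each well's pre-drug value. The stock of one drug was tenfold lower, so its dose labels may be too high.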

CCN(CC)CCNC(=O)c1c(C)[nH]c(/C=C2\C(=O)Nc3ccc(F)cc32)c1C [Sunitinib]
relative JC-1 red fluorescence
Settings	8 h	16 h	24 h	32 h	40 h	48 h	56 h	64 h	72 h
10 µM, coculture fibroblast: C12385	0.789	0.829	0.725	0.793	0.759	0.753	0.734	0.737	0.731
10 µM, coculture fibroblast: H6013	0.925	0.881	0.847	0.772	0.709	0.644	0.581	0.492	0.436
10 µM, coculture fibroblast: H6019	0.829	0.82	0.7744	0.821	0.739	0.656	0.562	0.488	0.441
10 µM, coculture fibroblast: H6076	0.929	0.955	0.886	0.8399	0.754	0.653	0.574	0.524	0.481
10 µM, coculture fibroblast: H6231	0.9803	0.9304	0.904	0.8375	0.7713	0.68	0.555	0.478	0.386
10 µM, coculture fibroblast: HADF	0.868	0.872	0.853	0.789	0.72	0.636	0.604	0.531	0.435
10 µM, coculture fibroblast: HCFa	0.945	0.94224	0.9295	0.932	0.911	0.865	0.885	0.866	0.85
10 µM, coculture fibroblast: HCPF	0.837	0.9879	0.933	0.88	0.884	0.776	0.654	0.57	0.485
10 µM, coculture fibroblast: HHSteC	0.92359	0.9244	0.889	0.857	0.78	0.707	0.656	0.598	0.536
10 µM, coculture fibroblast: HMF	0.928	0.89	0.86	0.816	0.751	0.687	0.585	0.53	0.449
10 µM, coculture fibroblast: HPFa	0.947	0.963	0.9352	0.912	0.913	0.875	0.863	0.851	0.832
10 µM, coculture fibroblast: HUF	0.899	0.845	0.834	0.796	0.771	0.778	0.75	0.746	0.726
10 µM, coculture fibroblast: Hs5	0.918	0.871	0.867	0.821	0.932	0.879	0.859	0.795	0.749
10 µM, coculture fibroblast: Hs27A	0.9445	0.929	0.91	0.904	0.874	0.78	0.826	0.797	0.76
10 µM, coculture fibroblast: Hs343T	0.926	0.897	0.873	0.852	0.765	0.674	0.549	0.496	0.402
10 µM, coculture fibroblast: WS1	0.759	0.725	0.668	0.659	0.609	0.576	0.521	0.524	0.497
100 µM, coculture fibroblast: C12385	0.356	0.156	0.179	0.126	0.101	0.0919	0.072	0.0737	0.0694
100 µM, coculture fibroblast: H6013	0.381	0.249	0.227	0.213	0.183	0.187	0.163	0.141	0.107
100 µM, coculture fibroblast: H6019	0.256	0.147	0.174	0.133	0.119	0.116	0.105	0.0963	0.0964
100 µM, coculture fibroblast: H6076	0.483	0.375	0.372	0.395	0.369	0.353	0.339	0.324	0.304
100 µM, coculture fibroblast: H6231	0.585	0.453	0.416	0.459	0.451	0.502	0.508	0.529	0.537
100 µM, coculture fibroblast: HADF	0.461	0.294	0.27	0.239	0.219	0.226	0.204	0.181	0.145
100 µM, coculture fibroblast: HCFa	0.579	0.298	0.262	0.239	0.22	0.221	0.21	0.191	0.164
100 µM, coculture fibroblast: HCPF	0.545	0.359	0.318	0.329	0.288	0.273	0.246	0.231	0.213
100 µM, coculture fibroblast: HHSteC	0.449	0.307	0.277	0.25	0.23	0.234	0.204	0.191	0.158
100 µM, coculture fibroblast: HMF	0.514	0.358	0.329	0.324	0.288	0.246	0.229	0.211	0.198
100 µM, coculture fibroblast: HPFa	0.805	0.375	0.304	0.262	0.259	0.254	0.222	0.208	0.183
100 µM, coculture fibroblast: HUF	0.5234	0.284	0.297	0.242	0.205	0.201	0.166	0.156	0.14
100 µM, coculture fibroblast: Hs5	0.417	0.373	0.369	0.377	0.361	0.347	0.336	0.319	0.311
100 µM, coculture fibroblast: Hs27A	0.494	0.398	0.447	0.499	0.514	0.523	0.594	0.619	0.64
100 µM, coculture fibroblast: Hs343T	0.575	0.401	0.383	0.403	0.378	0.351	0.347	0.323	0.283
100 µM, coculture fibroblast: WS1	0.246	0.185	0.21	0.192	0.199	0.218	0.21	0.219	0.221
